Results are given in words; binding and its absence hold for the method and conditions named. In cells and extracts the contact can be indirect. Here binding means that the protein was enriched with, or labelled near, the bait; the list need not be complete.
Each molecule was assayed against Tribbles homolog 3 (TRIB3) (human (endogenous in MDA-MB-231)) (UniProt Q96RU7) (assay: affinity purification with mass spectrometry; 1 ug anti-TRIB3 antibody with 1 mg total protein from MDA-MB-231 cells and the radioresistant sub-line, 4 C overnight, Protein A magnetic beads; SDS-PAGE, in-gel digestion, LTQ-FTICR MS, label-free quantification).

By UniProt entry, the sequences of proteins in these tests, tags left out.
UniProt Q96RU7: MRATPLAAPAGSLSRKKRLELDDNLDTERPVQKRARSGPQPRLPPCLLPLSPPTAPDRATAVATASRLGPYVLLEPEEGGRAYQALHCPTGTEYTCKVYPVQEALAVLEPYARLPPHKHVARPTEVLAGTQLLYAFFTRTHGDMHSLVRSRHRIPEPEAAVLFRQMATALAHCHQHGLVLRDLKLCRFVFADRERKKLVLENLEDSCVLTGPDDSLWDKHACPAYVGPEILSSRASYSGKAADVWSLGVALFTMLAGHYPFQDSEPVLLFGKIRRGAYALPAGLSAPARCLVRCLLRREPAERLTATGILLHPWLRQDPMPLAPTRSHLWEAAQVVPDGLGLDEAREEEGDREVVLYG
UniProt Q92841: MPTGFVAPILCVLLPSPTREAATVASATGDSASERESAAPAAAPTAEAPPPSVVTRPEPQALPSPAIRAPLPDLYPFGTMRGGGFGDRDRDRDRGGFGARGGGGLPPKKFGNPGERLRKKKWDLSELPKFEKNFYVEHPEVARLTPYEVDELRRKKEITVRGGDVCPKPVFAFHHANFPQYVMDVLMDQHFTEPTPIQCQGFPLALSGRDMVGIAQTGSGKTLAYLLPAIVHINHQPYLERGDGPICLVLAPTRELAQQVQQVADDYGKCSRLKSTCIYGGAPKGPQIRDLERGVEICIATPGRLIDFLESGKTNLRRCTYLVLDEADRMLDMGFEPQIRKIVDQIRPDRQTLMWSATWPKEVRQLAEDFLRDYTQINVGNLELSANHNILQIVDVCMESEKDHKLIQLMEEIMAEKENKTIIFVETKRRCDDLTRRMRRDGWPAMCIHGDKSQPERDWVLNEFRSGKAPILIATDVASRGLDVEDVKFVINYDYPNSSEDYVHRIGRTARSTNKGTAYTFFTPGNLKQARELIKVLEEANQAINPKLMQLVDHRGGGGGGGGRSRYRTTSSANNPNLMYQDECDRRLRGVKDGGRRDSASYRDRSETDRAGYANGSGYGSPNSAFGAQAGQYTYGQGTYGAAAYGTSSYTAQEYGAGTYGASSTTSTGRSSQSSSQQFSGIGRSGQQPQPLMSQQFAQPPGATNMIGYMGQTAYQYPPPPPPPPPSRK
UniProt Q9NYF8: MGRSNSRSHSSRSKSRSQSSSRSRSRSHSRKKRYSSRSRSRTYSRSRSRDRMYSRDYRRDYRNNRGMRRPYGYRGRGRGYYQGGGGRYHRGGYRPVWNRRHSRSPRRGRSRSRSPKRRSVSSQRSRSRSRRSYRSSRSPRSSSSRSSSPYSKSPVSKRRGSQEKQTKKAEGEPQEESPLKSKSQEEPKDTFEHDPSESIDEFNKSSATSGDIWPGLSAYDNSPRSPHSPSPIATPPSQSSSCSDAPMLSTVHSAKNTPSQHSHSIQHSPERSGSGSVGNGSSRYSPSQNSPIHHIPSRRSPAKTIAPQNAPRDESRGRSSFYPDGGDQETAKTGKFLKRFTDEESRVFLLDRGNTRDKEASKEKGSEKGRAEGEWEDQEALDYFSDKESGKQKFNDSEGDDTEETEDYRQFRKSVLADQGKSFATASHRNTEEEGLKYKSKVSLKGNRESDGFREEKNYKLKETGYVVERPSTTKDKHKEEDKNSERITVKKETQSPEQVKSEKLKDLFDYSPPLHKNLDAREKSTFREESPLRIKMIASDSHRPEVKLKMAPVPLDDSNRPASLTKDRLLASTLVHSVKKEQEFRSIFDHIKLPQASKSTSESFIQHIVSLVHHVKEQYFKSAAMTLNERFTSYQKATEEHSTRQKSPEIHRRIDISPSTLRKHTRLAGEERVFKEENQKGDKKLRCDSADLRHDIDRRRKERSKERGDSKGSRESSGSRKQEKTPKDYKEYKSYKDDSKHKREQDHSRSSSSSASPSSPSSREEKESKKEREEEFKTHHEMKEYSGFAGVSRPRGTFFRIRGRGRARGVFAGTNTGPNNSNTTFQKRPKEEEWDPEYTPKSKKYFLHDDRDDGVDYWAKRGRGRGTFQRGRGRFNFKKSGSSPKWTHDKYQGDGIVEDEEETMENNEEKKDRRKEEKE
UniProt O43143: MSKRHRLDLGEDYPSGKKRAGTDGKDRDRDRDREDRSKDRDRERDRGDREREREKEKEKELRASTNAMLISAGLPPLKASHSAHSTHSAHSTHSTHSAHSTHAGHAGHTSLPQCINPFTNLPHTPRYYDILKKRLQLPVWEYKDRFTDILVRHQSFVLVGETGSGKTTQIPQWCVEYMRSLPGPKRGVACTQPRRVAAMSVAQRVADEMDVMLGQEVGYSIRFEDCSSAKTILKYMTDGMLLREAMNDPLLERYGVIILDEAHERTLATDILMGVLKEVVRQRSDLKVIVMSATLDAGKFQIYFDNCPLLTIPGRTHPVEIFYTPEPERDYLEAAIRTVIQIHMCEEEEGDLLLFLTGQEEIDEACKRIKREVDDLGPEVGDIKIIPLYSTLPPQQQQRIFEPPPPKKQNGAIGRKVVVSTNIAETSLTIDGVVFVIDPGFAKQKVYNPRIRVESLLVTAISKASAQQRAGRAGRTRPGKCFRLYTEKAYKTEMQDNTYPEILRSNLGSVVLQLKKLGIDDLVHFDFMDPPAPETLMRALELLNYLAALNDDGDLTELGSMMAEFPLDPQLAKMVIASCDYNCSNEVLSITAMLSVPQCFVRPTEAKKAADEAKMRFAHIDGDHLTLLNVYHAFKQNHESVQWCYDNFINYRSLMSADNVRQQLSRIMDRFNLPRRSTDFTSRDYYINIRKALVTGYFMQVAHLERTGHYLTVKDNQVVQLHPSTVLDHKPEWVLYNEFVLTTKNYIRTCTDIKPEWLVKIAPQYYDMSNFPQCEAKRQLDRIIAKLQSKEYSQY
UniProt Q9NR30: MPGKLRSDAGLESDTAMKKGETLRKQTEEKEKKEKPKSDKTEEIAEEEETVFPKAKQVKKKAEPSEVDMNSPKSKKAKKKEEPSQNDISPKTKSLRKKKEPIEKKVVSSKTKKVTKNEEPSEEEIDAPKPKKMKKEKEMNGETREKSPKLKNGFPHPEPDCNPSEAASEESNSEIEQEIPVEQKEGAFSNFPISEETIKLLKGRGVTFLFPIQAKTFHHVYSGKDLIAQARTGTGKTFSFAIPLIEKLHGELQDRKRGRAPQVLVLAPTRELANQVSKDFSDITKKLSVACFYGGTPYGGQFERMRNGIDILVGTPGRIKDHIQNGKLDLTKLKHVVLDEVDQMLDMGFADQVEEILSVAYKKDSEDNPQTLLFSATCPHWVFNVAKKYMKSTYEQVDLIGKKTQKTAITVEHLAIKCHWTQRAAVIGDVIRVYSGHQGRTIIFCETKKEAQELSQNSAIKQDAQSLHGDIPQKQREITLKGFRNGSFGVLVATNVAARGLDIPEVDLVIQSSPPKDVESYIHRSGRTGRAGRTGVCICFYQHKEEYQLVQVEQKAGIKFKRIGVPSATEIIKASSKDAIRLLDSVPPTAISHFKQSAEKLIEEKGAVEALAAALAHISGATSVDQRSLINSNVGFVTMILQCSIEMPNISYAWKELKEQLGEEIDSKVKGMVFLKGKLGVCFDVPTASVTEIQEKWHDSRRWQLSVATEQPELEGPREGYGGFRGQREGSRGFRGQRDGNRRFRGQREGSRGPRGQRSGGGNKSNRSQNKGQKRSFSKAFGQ

| Molecule | binding |
| --- | --- |
| DDX17 (from UniProt Q92841 1-729) | binds |
| BCL2-associated transcription factor 1 (BCLAF1) (from UniProt Q9NYF8 1-920) | binds |
| DDX15 (from UniProt O43143 1-795) | binds |

More lines, now with the values ahead:

| binding | Molecule |
| --- | --- |
| binds | DDX21 (from UniProt Q9NR30 1-783) |
| binds | BCL2 interacting protein 1 (BNIP1) (protein, UniProt Q12981 1-228) MAAPQDVHVRICNQEIVKFDLEVKALIQDIRDCSGPLSALTELNTKVKEKFQQLRHRIQDLEQLAKEQDKESEKQLLLQEVENHKKQMLSNQASWRKANLTCKIAIDNLEKAELLQGGDLLRQRKTTKESLAQTSSTITESLMGISRMMAQQVQQSEEAMQSLVTSSRTILDANEEFKSMSGTIQLGRKLITKYNRRELTDKLLIFLALALFLATVLYIVKKRLFPFL |

From paper PMC6406679
